Experimental data: PubChem BioAssay AID445 (National Center for Advancing Translational Sciences (NCATS), 2006)
Some of the results follow. Further columns of the screen follow, without active or inactive calls. Compounds called inactive in the main read-out are mostly missing here. The note in brackets gives the kind of curve behind each potency; many fits are weak.

experiment: IkB Signaling; settings: ABC-DLBCL IkBa-CBG/CBR dual luciferase ratio (green luciferase fused to IkBa over red control in OCI-Ly3 lymphoma cells), 4 h; measured here: control luc red channel unless noted
Outline: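 In this assay, an IκBα–CBG68 fusion accumulates when IKK-driven degradation is blocked; native CBR normalizes for cell number. OCI-Ly3 cells were treated 4 h with compound and doxycycline, then green and red light read after Chroma-Glo addition.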

Row | Compound | AC50
1 | CCOC(=O)C1CCN(C(=O)c2oc3ccc(S(=O)(=O)N4CCCCCC4)cc3c2C)CC1 | 10 µM [falling, partial curve]
2 | O=C(c1cccc(Cl)c1)n1nc(-c2ccco2)nc1NCc1cccs1 | 25.1 µM [falling, single point]
3 | Cc1cccc(NC(=O)c2cc(S(=O)(=O)N3CCCCC3)c[nH]2)c1C | 0.126 µM [falling, full curve]
4 | Cc1cccc(Cn2c(SCc3ccc(C(=O)N4CCCCCC4)cc3)nc3ccncc32)c1 | 25.1 µM [falling, partial curve]
5 | Cc1cccc2cc(CN(Cc3nnnn3Cc3ccco3)C3CCCC3)c3nnnn3c12 | 15.8 µM [falling, partial curve]
6 | CCc1ccc(-n2nnc(-c3nc(-c4ccccc4)no3)c2C)cc1 | 2.51 µM [falling, full curve]
7 | COc1ccc(CCNC(=O)c2ccc3c(c2)N(Cc2cccc(C)c2)C(=O)c2ccccc2S3(=O)=O)cc1OC | 1.26 µM [rising, full curve]
8 | CCOc1ccccc1-c1nc(-c2ccc(-c3ccccc3)nc2OCC)no1 | 7.94 µM [falling, partial curve]
9 | COc1ccccc1NC(=O)CSc1nnc(-c2cccc(Cl)c2)o1 | 6.31 µM [falling, partial curve]
10 | COc1ccccc1Nc1c2c(nc3ccc(NC(=O)/C=C/c4cccc(OC)c4OC)cc13)CCCC2 | 12.6 µM [falling, partial curve]
11 | COc1ccc2nc(N(Cc3cccnc3)C(=O)CCc3ccccc3)sc2c1 | 39.8 µM [falling, single point]
12 | CCCCC12CN3CC(C)(CN(C1)C3c1cc(Br)ccc1O)C2=O (stereo not given) | 31.6 µM [falling, single point]
13 | CC(=O)c1cc(-c2ccc(F)cc2)n(CCC(=O)NCc2ccccc2C)c1C | 39.8 µM [falling, single point]
14 | Cc1ccc(-c2nc3scc(CCNC(=O)c4cccc(Br)c4)n3n2)cc1 | 0.501 µM [rising, full curve]
15 | COc1ccccc1NC(=O)C1CCCN(c2nnc(C)c3c(C)n(-c4ccccc4)nc23)C1 (stereo not given) | 10 µM [falling, partial curve]
16 | Cc1ccc(N2CCN(c3nc4ccc(C)cc4n4nnnc34)CC2)c(C)c1 | 20 µM [falling, single point]
17 | CCCN(CCC)C(=O)Cn1c(=O)n(-c2cccc(C(F)(F)F)c2)c(=O)c2c(C)c(C)sc21 | 7.94 µM [falling, full curve]
18 | CCOC(=O)c1sc(NC(=O)c2c(C)nn(Cc3ccccc3)c2C)cc1C | 25.1 µM [falling, partial curve]
19 | CCOc1cc(C(=O)Nc2ccc(-c3nc4cc(C)ccc4o3)cc2)cc(OCC)c1OCC | 7.94 µM [falling, full curve, poor fit]
20 | O=C1[C@@H]2CSC(c3ccc(F)cc3)N2C(=O)N1c1ccc(Cl)cc1 (stereo not given in full) | 31.6 µM [falling, single point]

Entries above with bromine (two):
Row | Compound | AC50
12 | CCCCC12CN3CC(C)(CN(C1)C3c1cc(Br)ccc1O)C2=O (stereo not given) | 31.6 µM [falling, single point]
14 | Cc1ccc(-c2nc3scc(CCNC(=O)c4cccc(Br)c4)n3n2)cc1 | 0.501 µM [rising, full curve]

Continued:

Row | Compound | AC50
21 | Cc1cccc(OCc2nnc(SCc3cc(=O)n4cc(Br)ccc4n3)o2)c1 | 25.1 µM [falling, partial curve, poor fit]
22 | O=C(Cn1c(=O)n2nc(-c3ccccc3)nc2c2ccccc21)Nc1ccccc1C(F)(F)F | 39.8 µM [falling, single point]
23 | COc1ccc(-c2noc(C3CCCN(C(=O)CCc4ccccc4)C3)n2)cc1 (stereo not given) | 12.6 µM [falling, partial curve]
24 | COc1cc(Cl)c(C)cc1NC(=O)CCc1nc2cccnc2n1-c1ccccc1 | 39.8 µM [falling, single point]
25 | CC1=C(C(=O)Nc2ccccc2)C(c2ccccc2)n2nc(-c3ccco3)nc2N1 (stereo not given) | 1.26 µM [falling, full curve, poor fit]
26 | COc1ccc(NC(=O)Cn2c(SCc3cccc(Cl)c3)nc3ccncc32)c(OC)c1OC | 12.6 µM [falling, partial curve]
27 | COc1ccc(N2CCN(C(=O)C(CCSC)N=C3NS(=O)(=O)c4ccccc43)CC2)cc1 (stereo not given) | 20 µM [falling, partial curve]
28 | CCOc1ccccc1NC(=O)C(C)Sc1cc(-c2ccccc2)nc(C)n1 (stereo not given) | 20 µM [falling, partial curve]
29 | Cc1ccc(NCc2cccn2-c2nnc(N3CCCCCC3)s2)cc1 | 15.8 µM [falling, partial curve]
30 | CCCCn1c(=O)n(-c2ccc(Br)cc2F)c(=O)c2c3c(sc21)CN(C(C)=O)CC3 | 20 µM [falling, single point]
31 | Cc1csc2nc(COC(=O)c3ccc(NC(=O)COc4ccccc4F)cc3)cc(=O)n12 | 10 µM [falling, partial curve]
32 | CCOC(=O)c1c(-c2ccccc2)[nH]c2ccc(O)cc12 | 15.8 µM [falling, partial curve]
33 | COc1ccccc1CNC(=O)C(=O)NCC(c1cccs1)S(=O)(=O)c1ccc(F)cc1 (stereo not given) | 39.8 µM [falling, partial curve]
34 | Cc1cc(C)cc(C(=O)N(C)[C@H](Cc2ccc(-c3ccccc3)cc2)C(=O)N[C@@H](Cc2c[nH]c3ccccc23)C(=O)O)c1 | 20 µM [falling, partial curve]
35 | O=C(CSc1nnc2ccccn12)c1ccc(OC(F)F)cc1OC(F)F | 25.1 µM [falling, single point]
36 | Oc1c(C(c2ccccc2)N2CCN(Cc3ccccc3)CC2)sc2nc(-c3ccco3)nn12 (stereo not given) | 5.01 µM [rising, single point]
37 | O=C(CCn1c(=O)oc2ccccc21)Nc1ccccc1 | 2 µM [falling, full curve, poor fit]
38 | Cc1ccc(NC(=O)Cn2nnnc2-c2ccccc2N)cc1 | 20 µM [falling, partial curve, poor fit]
39 | O=C(C1CCCN(S(=O)(=O)c2cccs2)C1)N1CCN(c2cccc(Cl)c2)CC1 (stereo not given) | 39.8 µM [falling, single point]
40 | Cn1c(=O)c2nc(SCC(=O)Nc3cc(Cl)ccc3Cl)n(C)c2n(C)c1=O | 0.0126 µM [falling, full curve, poor fit]
